Results: the supplement of paper PMC8728848
Some of the results follow.

What was measured:
Assay in all cases: glycan array binding signal (z-score within array); higher = stronger binding
Details in all cases: glycan notation: IUPAC condensed, linker removed
[1] = biological target: Fuc(a1-2)Gal
In short: (§1)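 Glycan array data were curated from 3228 arrays in the Consortium for Functional Glycomics database and kept only where the protein sequence was available. Glycan names were converted to IUPAC-condensed notation, and columns mapping to the same glycan were averaged. The binding signal is a within-array Z-score, averaged across arrays of the same protein sequence at different concentrations or buffers and across linkers. Negative Z-scores can be read as non-binding.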

[2] = biological target: Fuc(a1-2)Gal(b1-3)GalNAc
In short: as §1

[3] = biological target: Fuc(a1-2)Gal(b1-3)GalNAc(b1-3)Gal
In short: as §1

[4] = biological target: Fuc(a1-2)Gal(b1-3)GalNAc(b1-3)Gal(a1-4)Gal(b1-4)Glc
In short: as §1

[5] = biological target: Fuc(a1-2)Gal(b1-3)GalNAc(b1-4)[Neu5Ac(a2-3)]Gal(b1-4)Glc
In short: as §1

[6] = biological target: Fuc(a1-2)Gal(b1-3)GlcNAc
In short: as §1

[7] = biological target: Fuc(a1-2)Gal(b1-3)GlcNAc(b1-2)Man(a1-3)[Fuc(a1-2)Gal(b1-3)GlcNAc(b1-2)Man(a1-6)]Man(b1-4)GlcNAc(b1-4)GlcNAc
In short: as §1

[8] = biological target: Fuc(a1-2)Gal(b1-3)GlcNAc(b1-3)Gal(b1-4)Glc
In short: as §1

[9] = biological target: Fuc(a1-2)Gal(b1-3)GlcNAc(b1-3)[Gal(b1-4)[Fuc(a1-3)]GlcNAc(b1-6)]Gal(b1-4)Glc
In short: as §1

[10] = biological target: Fuc(a1-2)Gal(b1-3)[Fuc(a1-4)]GlcNAc
In short: as §1

[11] = biological target: Fuc(a1-2)Gal(b1-3)[Fuc(a1-4)]GlcNAc(b1-2)Man(a1-3)[Fuc(a1-2)Gal(b1-3)[Fuc(a1-4)]GlcNAc(b1-2)Man(a1-6)]Man(b1-4)GlcNAc(b1-4)GlcNAc
In short: as §1

[12] = biological target: Fuc(a1-2)Gal(b1-4)Glc
In short: as §1

[13] = biological target: Fuc(a1-2)Gal(b1-4)Glc6S
In short: as §1

[14] = biological target: Fuc(a1-2)Gal(b1-4)GlcNAc
In short: as §1

[15] = biological target: Fuc(a1-2)Gal(b1-4)GlcNAc(b1-2)Man(a1-3)[Fuc(a1-2)Gal(b1-4)GlcNAc(b1-2)Man(a1-6)]Man(b1-4)GlcNAc(b1-4)GlcNAc
In short: as §1

[16] = biological target: Fuc(a1-2)Gal(b1-4)GlcNAc(b1-3)Gal(b1-4)GlcNAc
In short: as §1

[17] = biological target: Fuc(a1-2)Gal(b1-4)GlcNAc(b1-3)Gal(b1-4)GlcNAc(b1-3)Gal(b1-4)GlcNAc
In short: as §1

[18] = biological target: Fuc(a1-2)Gal(b1-4)GlcNAc6S
In short: as §1

[19] = biological target: Fuc(a1-2)Gal(b1-4)[Fuc(a1-3)]GlcNAc
In short: as §1

[20] = biological target: Fuc(a1-2)Gal(b1-4)[Fuc(a1-3)]GlcNAc(b1-2)Man(a1-3)[Fuc(a1-2)Gal(b1-4)[Fuc(a1-3)]GlcNAc(b1-2)Man(a1-6)]Man(b1-4)GlcNAc(b1-4)GlcNAc
In short: as §1

[21] = biological target: Fuc(a1-2)Gal(b1-4)[Fuc(a1-3)]GlcNAc(b1-3)Gal(b1-4)[Fuc(a1-3)]GlcNAc
In short: as §1

[22] = biological target: Fuc(a1-2)Gal(b1-4)[Fuc(a1-3)]GlcNAc(b1-3)Gal(b1-4)[Fuc(a1-3)]GlcNAc(b1-3)Gal(b1-4)[Fuc(a1-3)]GlcNAc
In short: as §1

[23] = biological target: Fuc(a1-2)Gal6S(b1-4)Glc
In short: as §1

[24] = biological target: Fuc(a1-2)Gal6S(b1-4)Glc6S
In short: as §1

[25] = biological target: Fuc(a1-2)Gal6S(b1-4)GlcNAc
In short: as §1

[26] = biological target: Fuc(a1-2)[Gal(a1-3)]Gal
In short: as §1

[27] = biological target: Fuc(a1-2)[Gal(a1-3)]Gal(b1-3)GlcNAc
In short: as §1

[28] = biological target: Fuc(a1-2)[Gal(a1-3)]Gal(b1-3)GlcNAc(b1-2)Man(a1-3)[Fuc(a1-2)[Gal(a1-3)]Gal(b1-3)GlcNAc(b1-2)Man(a1-6)]Man(b1-4)GlcNAc(b1-4)GlcNAc
In short: as §1

[29] = biological target: Fuc(a1-2)[Gal(a1-3)]Gal(b1-4)Glc
In short: as §1

[30] = biological target: Fuc(a1-2)[Gal(a1-3)]Gal(b1-4)GlcNAc
In short: as §1

[31] = biological target: Fuc(a1-2)[Gal(a1-3)]Gal(b1-4)GlcNAc(b1-2)Man(a1-3)[Fuc(a1-2)[Gal(a1-3)]Gal(b1-4)GlcNAc(b1-2)Man(a1-6)]Man(b1-4)GlcNAc(b1-4)GlcNAc
In short: as §1

[32] = biological target: Fuc(a1-2)[Gal(a1-3)]Gal(b1-4)[Fuc(a1-3)]GlcNAc
In short: as §1

[33] = biological target: Fuc(a1-2)[Gal(a1-4)]Gal(b1-4)GlcNAc
In short: as §1

[34] = biological target: Fuc(a1-2)[GalNAc(a1-3)]Gal
In short: as §1

[35] = biological target: Fuc(a1-2)[GalNAc(a1-3)]Gal(b1-3)GlcNAc
In short: as §1

[36] = biological target: Fuc(a1-2)[GalNAc(a1-3)]Gal(b1-3)GlcNAc(b1-2)Man(a1-3)[Fuc(a1-2)[GalNAc(a1-3)]Gal(b1-3)GlcNAc(b1-2)Man(a1-6)]Man(b1-4)GlcNAc(b1-4)GlcNAc
In short: as §1

[37] = biological target: Fuc(a1-2)[GalNAc(a1-3)]Gal(b1-4)Glc
In short: as §1

B1: PP2A1 (Arabidopsis thaliana) (protein)
chain: MFRNQDSKYLIPVQKEAPPVTTLPMKASTVKSPHNCEAILRDADPPISLSSVNLSEQLRSGVFLKPKKQIKYWVDERNSNCFMLFAKNLSITWSDDVNYWTWFTEKESPNENVEAVGLKNVCWLDITGKFDTRNLTPGIVYEVVFKVKLEDPAYGWDTPVNLKLVLPNGKEKPQEKKVSLRELPRYKWVDVRVGEFVPEKSAAGEITFSMYEHAAGVWKKGLSLKGVAIRPKQHHHHHH
glycan array binding signal (z-score) [1]: -0.212
glycan array binding signal (z-score) [2]: -0.262
glycan array binding signal (z-score) [3]: -0.056
glycan array binding signal (z-score) [4]: -0.589
glycan array binding signal (z-score) [5]: -0.487
glycan array binding signal (z-score) [6]: -0.319
glycan array binding signal (z-score) [7]: 0.319
glycan array binding signal (z-score) [8]: -0.183
glycan array binding signal (z-score) [9]: -0.222
glycan array binding signal (z-score) [10]: -0.217
glycan array binding signal (z-score) [11]: 1.26
glycan array binding signal (z-score) [12]: -0.059
glycan array binding signal (z-score) [13]: 0.159
glycan array binding signal (z-score) [14]: -0.545
glycan array binding signal (z-score) [15]: 0.48
glycan array binding signal (z-score) [16]: -0.347
glycan array binding signal (z-score) [17]: -0.309
glycan array binding signal (z-score) [18]: -0.023
glycan array binding signal (z-score) [19]: -0.286
glycan array binding signal (z-score) [20]: 0.66
glycan array binding signal (z-score) [21]: -0.471
glycan array binding signal (z-score) [22]: -0.237
glycan array binding signal (z-score) [23]: 0.434
glycan array binding signal (z-score) [24]: 0.934
glycan array binding signal (z-score) [25]: 0.065
glycan array binding signal (z-score) [26]: 0.071
glycan array binding signal (z-score) [27]: -0.478
glycan array binding signal (z-score) [28]: 0.483
glycan array binding signal (z-score) [29]: -0.572
glycan array binding signal (z-score) [30]: -0.403
glycan array binding signal (z-score) [31]: 0.586
glycan array binding signal (z-score) [32]: -0.138
glycan array binding signal (z-score) [33]: -0.507
glycan array binding signal (z-score) [34]: -0.564
glycan array binding signal (z-score) [35]: -0.107
glycan array binding signal (z-score) [36]: 0.053
glycan array binding signal (z-score) [37]: -0.724
